Measurements taken from PMC11164680.
Results are given in words; binding and its absence hold for the method and conditions named. Binding seen in cells or lysates may run through a third protein. Some results given as binding are weak or reduced against the parent protein; the word gives no strength.

Sequences of proteins named here, by UniProt entry; tags and fusion partners are left off. Residues count along the entry.
UniProt P07237, residues 18-508: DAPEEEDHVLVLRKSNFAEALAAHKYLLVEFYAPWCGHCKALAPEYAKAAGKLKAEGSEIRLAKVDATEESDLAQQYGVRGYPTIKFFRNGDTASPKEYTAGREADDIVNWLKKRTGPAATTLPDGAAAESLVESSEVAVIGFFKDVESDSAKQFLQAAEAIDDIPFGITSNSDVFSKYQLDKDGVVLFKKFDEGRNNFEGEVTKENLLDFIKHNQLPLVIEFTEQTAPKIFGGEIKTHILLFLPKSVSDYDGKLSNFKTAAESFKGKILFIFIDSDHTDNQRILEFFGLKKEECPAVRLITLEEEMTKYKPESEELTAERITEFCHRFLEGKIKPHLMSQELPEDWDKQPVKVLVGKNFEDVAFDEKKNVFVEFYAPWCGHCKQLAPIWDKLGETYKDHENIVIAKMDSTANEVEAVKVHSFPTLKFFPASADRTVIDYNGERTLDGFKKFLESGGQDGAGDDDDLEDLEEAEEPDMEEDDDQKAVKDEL
UniProt O15460, residues 22-535: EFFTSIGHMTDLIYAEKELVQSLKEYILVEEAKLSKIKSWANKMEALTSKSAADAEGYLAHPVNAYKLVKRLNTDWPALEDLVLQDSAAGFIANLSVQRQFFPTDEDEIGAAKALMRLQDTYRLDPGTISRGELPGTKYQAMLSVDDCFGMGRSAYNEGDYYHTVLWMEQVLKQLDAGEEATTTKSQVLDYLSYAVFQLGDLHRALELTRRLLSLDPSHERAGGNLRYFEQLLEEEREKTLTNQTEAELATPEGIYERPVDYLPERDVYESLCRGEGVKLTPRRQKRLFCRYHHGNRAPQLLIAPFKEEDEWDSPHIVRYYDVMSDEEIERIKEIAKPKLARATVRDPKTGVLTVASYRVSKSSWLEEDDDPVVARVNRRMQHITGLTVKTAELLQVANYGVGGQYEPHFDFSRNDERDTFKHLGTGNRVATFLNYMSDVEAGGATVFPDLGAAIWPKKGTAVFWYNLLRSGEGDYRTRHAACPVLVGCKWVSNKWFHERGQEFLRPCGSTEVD

Molecular target: HA-tagged P4HB (UniProt P07237)
Assay: co-IP; whole-cell lysates of transfected 293T cells; magnetic beads carrying anti-Flag or anti-HA antibodies, 3 h at 4 °C; IP buffer 50 mM Tris-HCl pH 7.5, 150 mM NaCl, 0.5% NP-40, 10% glycerol; immunoblot

With “prolyl 4-hydroxylase subunit alpha-2 (P4HA2), endogenous in 293T cells (from UniProt O15460 22-535) (enzyme)” the binding was “binds”.
